Literature values in patent US6124352A (priority 1994, dated 2000).

Conditions: in words; cited from earlier work

In the case of `C[C@@H]1[C@H](O)[C@@H](C)/C=C/C=C/C=C/C=C/C=C/C=C/C=C/[C@H](O[C@@H]2O[C@H](C)[C@@H](O)[C@H](N)[C@@H]2O)C[C@@H]2O[C@](O)(C[C@@H](O)C[C@@H](O)[C@H](O)CC[C@@H](O)C[C@@H](O)CC(=O)O[C@H]1C)C[C@H](O)[C@H]2C(=O)O` [Amphotericin B, amphotericin B], the “water solubility (amphotericin B)” value is listed as “water insoluble”.
